Measurements published in PubChem BioAssay AID485314 (National Center for Advancing Translational Sciences (NCATS), 2010).
The campaign covered roughly 340,000 compounds. About 4,500 (1.3%) were called active. Inconclusive results, whose numbers are uncertain, are shown with a selection of clear calls. The call rests on the fitted dose curve; in most records, active means well fitted inhibition curve with a large enough effect; inconclusive means small, poorly fitted or top-dose-only effect, or another doubt; inactive means no such curve, though single readings can be large or run the other way. Potencies beside an inconclusive call are fits to weak or partial responses and may not hold up.

Each compound was assayed against DNA polymerase beta (Homo sapiens) (UniProt P06746) (assay: qHTS Assay for Inhibitors of DNA Polymerase Beta). Details: Pol beta primer extension/strand displacement, fluorescence kinetic; activity change, negative = inhibition: at 114 µM (top of the series).
Summary of the method: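 Curves were derived by four-parameter Hill fits of normalized qHTS data. The kinetic fluorescent primer-extension read was taken at 0 and 10 min after 50 nM substrate, following a 15 min room-temperature preincubation of 10 nM enzyme with compounds.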
On the % scale 0 is the no-effect control and ±100 the full control effect; potency means the concentration at half of the fitted maximal effect.

Potency, active:
O=C(O)CCCN1C(=O)/C(=C/c2ccc(-c3nc4ccccc4s3)o2)SC1=S 12.6 µM
COc1ccc(CCNC(=O)CCCn2nc(C)c3sc4ccccc4c3c2=O)cc1OC 35.5 µM
Cc1ccc(O)c(/C=N/NC(=O)Cc2ccc(Cl)cc2)c1 25.1 µM
O=C(OCc1cc(=O)n2nc(-c3cccs3)sc2n1)c1ccc(F)cc1 11.2 µM
CCOc1ccc(N=C2NC(=O)S/C2=C\c2ccc(OC)cc2)cc1 10 µM
COc1cc(Cl)cc(C(c2c(C(=O)O)[nH]c3ccccc23)c2c(C(=O)O)[nH]c3ccccc23)c1O 89.1 µM
Cc1cc(=O)[nH]c(SCC(=O)NCc2ccco2)n1 12.6 µM
O=C(Cc1ccc(S(=O)(=O)N2CCCC2)s1)NC1CCCCCC1 31.6 µM
O=C(Nc1cccc(S(=O)(=O)NC2=NCCC2)c1)c1cc(-c2ccco2)nc2ccccc12 3.55 µM
COCc1ccc(CN2CCc3c([nH]c4ccccc34)C2C(C)(C)C)o1 (stereo unspecified) 20 µM

Potency, inconclusive:
CC(C)CCN1CCN(Cc2cccs2)CC1CCO (stereo unspecified) 39.8 µM [inhibitor, single point]
Cc1ccc(-c2nc(CS(=O)(=O)CC(=O)Nc3cc(C)ccc3C)c(C)o2)cc1 70.8 µM [inhibitor, single point]
OCCNc1cnc2ccccc2n1 89.1 µM [inhibitor, single point]
N=c1c(C(=O)NCc2ccccc2)cc2c(=O)n3ccccc3nc2n1Cc1ccco1 0.141 µM [inhibitor, full curve, poor fit]
O=C(Cn1c2ccccc2c(=O)c2ccccc21)Nc1ccccc1F 25.1 µM [inhibitor, single point]
COCCn1c(SCC(=O)Nc2ccc(OC)c(S(N)(=O)=O)c2)nc2ccccc21 79.4 µM [inhibitor, single point]
Cc1cc(C(=O)NNC(=O)CCN2CCN(c3ccccc3)CC2)c2ccccc2n1 0.158 µM [inhibitor, full curve, poor fit]
COc1ccccc1N(C)S(=O)(=O)c1ccc(Cl)c(C(=O)NC2=NCCS2)c1 63.1 µM [inhibitor, single point]
CCN(c1ccccc1)c1nnc(NC(=O)Nc2ccc(C)cc2)s1 89.1 µM [inhibitor, single point]
Cc1ccc(Nc2nc3ccccc3c3nncn23)cc1C 28.2 µM [inhibitor, full curve, poor fit]
Cc1c(NC(=O)c2ccccc2F)cccc1-c1nc2cccnc2s1 15.8 µM [inhibitor, full curve]
COC(=O)c1nnn(CC(=O)Nc2ccc(Br)c(C)c2)c1N 22.4 µM [inhibitor, full curve, poor fit]
Cn1c(Cc2ccccc2)nnc1SCc1cc(=O)n2ccsc2n1 0.141 µM [inhibitor, full curve, poor fit]
Nc1nc(-c2ccco2)c(-c2ccco2)s1 50.1 µM [inhibitor, partial curve]
CC(NC(=O)C(=O)Nc1c2c(nn1-c1ccc(F)cc1)CSC2)c1ccccc1 (stereo unspecified) 39.8 µM [inhibitor, partial curve]
Cn1c(N)c(C(=O)COC(=O)[C@@H]2CCCN2S(=O)(=O)c2ccc(Cl)cc2)c(=O)n(C)c1=O 89.1 µM [inhibitor, single point]
O=C(CCO)c1ccc(O)cc1 1.78 µM [inhibitor, full curve]
O=C(CSc1nc2ccccc2n1Cc1ccccc1Cl)NCc1ccccc1 70.8 µM [inhibitor, single point]
Cc1oc2c(c(C)cc3oc(=O)c(CC(=O)NCCCN4CCCC4=O)c(C)c32)c1C 100 µM [inhibitor, single point]
CCOC(=O)c1[nH]cnc1C(=O)Nc1ccc(F)cc1 4.47 µM [inhibitor, single point]
CCOc1cc(/C=N/NC(=O)c2ccc(NC(=O)C3CC3)cc2)ccc1O 20 µM [inhibitor, full curve]
Cc1ccc(OCc2nnc(SCC(=O)NCc3ccccc3)n2C)cc1 89.1 µM [inhibitor, single point]
O=C(O)Cc1sc(N/N=C\c2ccncc2)nc1-c1ccccc1 22.4 µM [inhibitor, partial curve, poor fit]
O=C(O)c1cccc(-c2ccc(/C=N/n3cnnc3)o2)c1 8.91 µM [inhibitor, full curve]
O=C1C(Cl)=C(N2CCCCC2)C(=O)N1c1ccccc1Cl 89.1 µM [inhibitor, single point]
Cc1ccc(-c2[nH]nc3c2C(c2ccoc2)C(C#N)=C(N)O3)cc1C (stereo unspecified) 10 µM [inhibitor, partial curve, poor fit]

2 records picked at random from the list so far:
Potency, inconclusive:
CCOc1cc(/C=N/NC(=O)c2ccc(NC(=O)C3CC3)cc2)ccc1O 20 µM [inhibitor, full curve]
Cc1ccc(Nc2nc3ccccc3c3nncn23)cc1C 28.2 µM [inhibitor, full curve, poor fit]

Following part.

Potency, inactive:
O=c1c2cc(N3CCOCC3)ccc2[nH]c(=S)n1Cc1ccc(Cl)cc1
Cc1cc(C)c2oc(-c3ccc(C)c(NC(=S)NC(=O)c4cccs4)c3)nc2c1
N#Cc1c(Nc2ccccc2)sc(C(=O)C2CC2)c1N
COc1ccc(Nc2ncc3c(n2)CCN(Cc2ccc(Br)s2)C3)c(OC)c1
O=C(COC(=O)CCc1ccc(S(=O)(=O)N2CCOCC2)cc1)NCc1ccc(Cl)cc1
O=C(Cn1ncc2c(=O)oc3ccccc3c21)NCc1ccc(Cl)cc1
Cc1cc(C)c(Cn2c(C(O)c3ccccc3)nc3ccccc32)c(C)c1 (stereo unspecified)
Cc1cnc(NC(=O)c2c(-c3ccccc3)noc2C)s1
C=CCn1cc(C(=O)N2CCN(C)CC2)c(=O)c2cc(S(=O)(=O)N(CC)CC)ccc21

Activity change, negative = inhibition, inconclusive:
N#C/C(=C\c1ccc(-c2cc(Cl)ccc2Cl)o1)C(=O)Nc1ccccc1C(=O)O -108% [inhibitor]
